The target of the experiment is T1, FLAG-And-1, full-length And-1 (FL, 1–1129) (human) (UniProt O75717).
T1 sequence: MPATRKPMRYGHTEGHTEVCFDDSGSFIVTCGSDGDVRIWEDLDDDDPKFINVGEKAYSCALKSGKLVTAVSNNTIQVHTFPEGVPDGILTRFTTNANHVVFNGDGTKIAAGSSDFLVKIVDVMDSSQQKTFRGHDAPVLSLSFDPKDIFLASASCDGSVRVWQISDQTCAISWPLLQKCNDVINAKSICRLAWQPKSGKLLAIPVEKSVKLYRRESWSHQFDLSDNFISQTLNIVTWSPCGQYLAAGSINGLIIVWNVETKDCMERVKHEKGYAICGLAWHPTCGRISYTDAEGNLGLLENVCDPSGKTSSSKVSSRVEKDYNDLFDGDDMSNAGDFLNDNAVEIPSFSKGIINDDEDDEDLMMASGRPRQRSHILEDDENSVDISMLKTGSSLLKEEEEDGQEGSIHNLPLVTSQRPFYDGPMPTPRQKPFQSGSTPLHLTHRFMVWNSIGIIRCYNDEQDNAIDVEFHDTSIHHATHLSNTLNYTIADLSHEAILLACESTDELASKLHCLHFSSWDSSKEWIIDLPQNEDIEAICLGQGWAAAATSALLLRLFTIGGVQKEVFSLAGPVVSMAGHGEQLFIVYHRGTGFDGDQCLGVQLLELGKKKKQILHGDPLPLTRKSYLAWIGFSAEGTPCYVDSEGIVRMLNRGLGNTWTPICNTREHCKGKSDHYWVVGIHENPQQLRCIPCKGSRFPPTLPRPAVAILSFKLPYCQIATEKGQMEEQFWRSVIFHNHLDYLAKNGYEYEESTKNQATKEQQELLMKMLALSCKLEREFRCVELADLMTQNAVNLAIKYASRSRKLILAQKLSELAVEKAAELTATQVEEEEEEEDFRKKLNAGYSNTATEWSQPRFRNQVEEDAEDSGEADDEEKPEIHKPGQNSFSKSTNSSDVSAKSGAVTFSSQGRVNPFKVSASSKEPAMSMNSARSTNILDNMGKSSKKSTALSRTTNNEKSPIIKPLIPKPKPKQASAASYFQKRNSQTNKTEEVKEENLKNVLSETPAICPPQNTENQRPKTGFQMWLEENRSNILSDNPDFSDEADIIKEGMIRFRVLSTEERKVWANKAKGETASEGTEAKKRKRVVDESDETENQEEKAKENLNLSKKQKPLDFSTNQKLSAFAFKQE
Briefly: affinity purification with mass spectrometry; FLAG-And-1 pulled down with Flag-beads from lysates of transfected HEK293T cells, with or without UVB 100 mJ/cm2 (harvested 1 h after); ethidium bromide and DNase I in the lysis buffer.

Amino acid sequences for entries named in this document (tags omitted). A change or cut given only in a name is not applied to a line headed by its entry.
UniProt P28340: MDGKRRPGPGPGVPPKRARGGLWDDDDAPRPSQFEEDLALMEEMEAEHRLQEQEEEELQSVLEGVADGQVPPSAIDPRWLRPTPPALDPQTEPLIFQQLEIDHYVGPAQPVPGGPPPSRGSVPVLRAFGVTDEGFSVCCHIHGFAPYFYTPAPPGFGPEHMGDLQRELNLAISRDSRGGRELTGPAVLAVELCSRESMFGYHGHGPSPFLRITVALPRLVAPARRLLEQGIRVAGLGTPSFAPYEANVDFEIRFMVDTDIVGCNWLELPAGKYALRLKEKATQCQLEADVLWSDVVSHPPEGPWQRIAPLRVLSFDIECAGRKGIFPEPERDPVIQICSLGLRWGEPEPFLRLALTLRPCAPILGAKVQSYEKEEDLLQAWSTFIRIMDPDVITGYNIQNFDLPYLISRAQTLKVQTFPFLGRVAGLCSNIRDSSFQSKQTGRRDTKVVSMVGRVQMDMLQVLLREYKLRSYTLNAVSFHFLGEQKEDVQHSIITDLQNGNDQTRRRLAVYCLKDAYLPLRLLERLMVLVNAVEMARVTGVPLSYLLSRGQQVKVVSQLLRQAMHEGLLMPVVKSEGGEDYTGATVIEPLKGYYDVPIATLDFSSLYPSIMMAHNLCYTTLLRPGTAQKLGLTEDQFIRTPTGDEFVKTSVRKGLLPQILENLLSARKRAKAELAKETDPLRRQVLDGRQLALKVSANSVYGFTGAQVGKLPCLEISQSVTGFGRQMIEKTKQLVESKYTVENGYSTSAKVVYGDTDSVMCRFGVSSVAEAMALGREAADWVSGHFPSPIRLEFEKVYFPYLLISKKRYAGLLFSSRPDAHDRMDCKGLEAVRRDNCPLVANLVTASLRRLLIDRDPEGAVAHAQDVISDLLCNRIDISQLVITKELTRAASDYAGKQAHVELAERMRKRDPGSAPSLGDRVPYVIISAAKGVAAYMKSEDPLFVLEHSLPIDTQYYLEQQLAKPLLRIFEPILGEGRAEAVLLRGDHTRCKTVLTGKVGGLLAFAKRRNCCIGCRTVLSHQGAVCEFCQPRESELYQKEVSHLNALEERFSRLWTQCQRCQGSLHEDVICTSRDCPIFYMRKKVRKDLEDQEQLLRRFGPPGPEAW
UniProt Q16531: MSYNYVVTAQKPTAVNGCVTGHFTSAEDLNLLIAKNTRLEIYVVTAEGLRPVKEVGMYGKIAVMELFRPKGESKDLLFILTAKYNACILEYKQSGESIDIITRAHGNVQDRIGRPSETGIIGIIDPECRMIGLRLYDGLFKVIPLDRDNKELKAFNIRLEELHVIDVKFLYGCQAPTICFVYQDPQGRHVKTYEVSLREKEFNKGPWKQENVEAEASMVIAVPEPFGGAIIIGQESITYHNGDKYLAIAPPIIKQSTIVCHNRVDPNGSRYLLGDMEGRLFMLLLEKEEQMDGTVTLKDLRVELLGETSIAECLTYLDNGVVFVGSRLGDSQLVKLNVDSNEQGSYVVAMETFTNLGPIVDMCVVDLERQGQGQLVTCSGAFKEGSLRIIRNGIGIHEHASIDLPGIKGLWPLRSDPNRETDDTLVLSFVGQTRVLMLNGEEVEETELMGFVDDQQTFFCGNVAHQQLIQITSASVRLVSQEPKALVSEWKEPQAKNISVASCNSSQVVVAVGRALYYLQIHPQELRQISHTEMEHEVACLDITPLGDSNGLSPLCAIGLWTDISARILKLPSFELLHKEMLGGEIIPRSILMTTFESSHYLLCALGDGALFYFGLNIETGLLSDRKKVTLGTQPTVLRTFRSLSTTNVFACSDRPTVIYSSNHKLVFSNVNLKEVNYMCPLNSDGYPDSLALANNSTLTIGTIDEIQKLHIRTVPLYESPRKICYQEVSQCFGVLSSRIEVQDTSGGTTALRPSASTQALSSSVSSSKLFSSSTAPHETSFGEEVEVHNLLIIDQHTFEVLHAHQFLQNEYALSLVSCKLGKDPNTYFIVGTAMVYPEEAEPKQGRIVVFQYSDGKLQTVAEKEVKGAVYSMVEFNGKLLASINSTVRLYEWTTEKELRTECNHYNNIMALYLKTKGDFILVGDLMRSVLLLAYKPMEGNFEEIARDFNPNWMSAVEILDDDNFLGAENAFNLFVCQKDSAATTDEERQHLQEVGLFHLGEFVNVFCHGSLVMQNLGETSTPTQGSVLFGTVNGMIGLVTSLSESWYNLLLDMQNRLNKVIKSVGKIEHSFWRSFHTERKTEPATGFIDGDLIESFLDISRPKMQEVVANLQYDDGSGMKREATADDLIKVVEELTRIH

No constants are given. Whether binding was seen depends on the method and setting. In cells and extracts the contact can be indirect. A yes stands for co-enrichment or nearness to the bait. Other partners may have been found. Tags and fused reporters may be left off the sequences shown.

From article PMC12540712 come the findings set out here.

“catalytic subunit of DNA polymerase δ (p125) (from UniProt P28340 1-1107)”: the binding entry is given as “binds”.
The result for DDB1 (from UniProt Q16531 1-1140) reads “binds”.
